The source of these data is PMC6735364.

Protein sequences, listed by entry. Tags and fused reporters are not part of them.
UniProt Q00987: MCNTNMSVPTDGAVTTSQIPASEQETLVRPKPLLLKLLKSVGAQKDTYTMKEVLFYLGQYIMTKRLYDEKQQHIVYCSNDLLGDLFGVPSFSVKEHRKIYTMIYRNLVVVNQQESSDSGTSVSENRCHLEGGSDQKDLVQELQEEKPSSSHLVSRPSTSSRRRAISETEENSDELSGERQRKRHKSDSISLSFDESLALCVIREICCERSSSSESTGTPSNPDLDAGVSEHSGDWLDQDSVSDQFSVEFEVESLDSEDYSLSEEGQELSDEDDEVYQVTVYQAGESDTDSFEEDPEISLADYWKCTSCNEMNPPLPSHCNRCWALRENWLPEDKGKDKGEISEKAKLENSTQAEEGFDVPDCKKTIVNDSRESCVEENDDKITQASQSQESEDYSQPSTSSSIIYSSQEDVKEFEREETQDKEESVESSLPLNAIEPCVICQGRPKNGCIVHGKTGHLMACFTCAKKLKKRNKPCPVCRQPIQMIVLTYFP

These are yes or no findings as the source states them, for the method shown. Binding seen in cells or lysates may run through a third protein. Some entries that bind do so weakly or less than the wild type.

The target of the test is T1, MDM2 binding protein (MTBP) (human (endogenous in GF-1712 and U87)) (UniProt Q96DY7).
T1 sequence: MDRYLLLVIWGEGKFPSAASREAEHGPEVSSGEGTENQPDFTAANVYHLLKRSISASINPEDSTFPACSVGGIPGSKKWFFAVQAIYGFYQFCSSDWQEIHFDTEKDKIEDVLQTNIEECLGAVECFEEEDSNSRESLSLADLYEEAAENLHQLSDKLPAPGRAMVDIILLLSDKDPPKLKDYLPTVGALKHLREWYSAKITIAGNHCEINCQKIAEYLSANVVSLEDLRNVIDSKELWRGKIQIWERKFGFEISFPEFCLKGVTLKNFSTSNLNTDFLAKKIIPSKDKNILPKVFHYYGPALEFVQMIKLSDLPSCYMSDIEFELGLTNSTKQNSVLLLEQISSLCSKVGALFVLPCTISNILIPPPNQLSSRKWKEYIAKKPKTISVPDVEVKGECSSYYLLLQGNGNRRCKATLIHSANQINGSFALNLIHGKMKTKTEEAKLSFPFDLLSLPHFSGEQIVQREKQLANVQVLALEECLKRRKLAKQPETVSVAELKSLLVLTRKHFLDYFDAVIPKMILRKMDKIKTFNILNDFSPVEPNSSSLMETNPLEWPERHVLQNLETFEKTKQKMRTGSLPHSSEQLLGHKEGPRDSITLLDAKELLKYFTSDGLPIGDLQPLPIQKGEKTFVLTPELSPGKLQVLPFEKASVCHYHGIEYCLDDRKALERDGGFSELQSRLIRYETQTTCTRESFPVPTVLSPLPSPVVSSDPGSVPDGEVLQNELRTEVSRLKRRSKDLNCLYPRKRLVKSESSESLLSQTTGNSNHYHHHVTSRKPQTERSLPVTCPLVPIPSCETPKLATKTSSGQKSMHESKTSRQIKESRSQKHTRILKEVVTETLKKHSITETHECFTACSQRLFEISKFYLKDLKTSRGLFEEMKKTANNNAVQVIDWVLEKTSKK
The test is described as follows: co-IP; GF-1712 and U87 cells in RIPA lysis buffer; incubation with anti-MTBP or anti-MDM2 overnight at 4°C, protein-A/G PLUS-Agarose beads, western blot; anti-IgG as negative control. On the technique in general: Immunoblotting shows a protein as a band on a membrane.

Turning to “mouse double minute 2 (MDM2) protein (from UniProt Q00987 1-491)”, the binding entry was “binds”.
Take p53 (from UniProt P04637 1-393): the binding entry is reported as “no binding”.
